Data taken from paper PMC12431657, “Discovery and mechanistic insights of dibenzoylmethane as a broad spectrum inhibitor of coronavirus” (PLOS Pathogens, 2025).
Counter-ions that a name gives are not always drawn. Like-named read-outs stand apart in the source and are kept apart here. Out of some 3,300 compounds screened, about 95 (3%) showed an effect of 50% or more. Some of the results follow.

Test system: HCoV-229E
Design: species or system Huh-7; HTS, protection from HCoV-229E induced cell death, luminescent cell viability (CellCounting-Lite 2.0), inhibition rate
Details: 24 h post infection, 1 h compound pre-incubation, 10 µM, inhibitor

SMILES: OC[C@@H](O)[C@@H](O[C@H]1O[C@H](CO)[C@@H](O)[C@H](O)[C@H]1O)[C@H](O)[C@@H](O)CO [Maltitol]
- 229E Inhibition rate: 12%

SMILES: C=C1C[C@@]23CC[C@H]4[C@@](C)(CCC[C@@]4(C)C(=O)O[C@@H]4O[C@H](CO)[C@@H](O)[C@H](O)[C@H]4O)[C@@H]2CC[C@]1(O[C@@H]1O[C@H](C)[C@@H](O)[C@H](O)[C@@H]1O[C@@H]1O[C@H](CO)[C@@H](O)[C@H](O[C@@H]2O[C@H](CO)[C@@H](O)[C@H](O)[C@H]2O)[C@H]1O)C3 [Rebaudioside C]
- 229E Inhibition rate: 10.5%

SMILES: NC[C@H](O)c1ccc(O)c(O)c1 [Norepinephrine (hydrochloride)]
- 229E Inhibition rate: 7.6%

SMILES: COc1cc2c(cc1OC)[C@@H](Cc1ccc(O)c(Oc3cc4c(cc3OC)CCN(C)[C@@H]4Cc3ccc(O)cc3)c1)N(C)CC2 [Liensinine (perchlorate)]
- 229E Inhibition rate (229E Inhibition rate, 24 h): 8.8%

SMILES: CC(C)=CCC[C@H](C)CC=O [(S)-(-)-Citronellal]
- 229E Inhibition rate: 6.7%

SMILES: CC(=O)O[C@@]12CO[C@@H]1C[C@H](O)[C@@]1(C)C(=O)[C@H](O)C3=C(C)[C@@H](OC(=O)[C@H](O)[C@@H](NC(=O)c4ccccc4)c4ccccc4)C[C@@](O)([C@@H](OC(=O)c4ccccc4)[C@H]21)C3(C)C [10-Deacetyltaxol]
- 229E Inhibition rate: 10.8%

SMILES: C[C@@H]1O[C@@H](Oc2cc(O)c3c(=O)c(O)c(-c4ccc(O)cc4)oc3c2O)[C@H](O)[C@H](O)[C@H]1O [Rhodionin]
- 229E Inhibition rate: 0%

SMILES: Cc1ccc(O)c(O)c1 [4-Methylcatechol]
- 229E Inhibition rate: 16.8%

SMILES: C=C[C@](C)(O)CC[C@H]1C(=C)CC[C@H]2C(C)(C)CCC[C@]12C [Manool]
- 229E Inhibition rate: 42.5%

SMILES: O=C(O)C(O)C(O)C(=O)O (stereo not shown) [Choline (bitartrate)]
- 229E Inhibition rate (229E Inhibition rate, 24 h): 7.4%

SMILES: Nc1ccccc1S(=O)(=O)O [2-Aminobenzenesulfonic acid]
- 229E Inhibition rate: 0%

SMILES: COc1cc2ccc(=O)oc2c(O)c1O [Fraxetin]
- 229E Inhibition rate: 11.5%

SMILES: CC(=O)O[C@@]1(C)C[C@@H](O)[C@]2(O)C=CO[C@@H](O[C@@H]3O[C@H](CO)[C@@H](O)[C@H](O)[C@H]3O)[C@@H]21 [8-O-Acetylharpagide]
- 229E Inhibition rate: 0%

SMILES: O=C1c2ccccc2C(=O)c2c(O)c(O)cc(O)c21 [Purpurin]
- 229E Inhibition rate: 25.5%

SMILES: CCCOC(=O)c1ccc(O)cc1 [Propylparaben]
- 229E Inhibition rate: 42.3%

SMILES: Oc1cc(O)c2cc(O)c(-c3ccc(O)c(O)c3)[o+]c2c1 [Cyanidin (Chloride)]
- 229E Inhibition rate: 16.9%

SMILES: CCC1(c2ccc(O)cc2)NC(=O)N(C)C1=O (stereo not shown) [4-Hydroxymephenytoin]
- 229E Inhibition rate: 55.5%

SMILES: O=C(/C=C/c1ccc(O)c(O)c1)O[C@@H]1C[C@@](O)(C(=O)O)C[C@@H](O)[C@@H]1O [Neochlorogenic acid]
- 229E Inhibition rate: 24.2%

SMILES: CC(C)=CCc1cc([C@@H]2CC(=O)c3ccc(O)c(CC=C(C)C)c3O2)ccc1O [Glabrol]
- 229E Inhibition rate: 0%

SMILES: CNC(=O)c1cccnc1 [N-Methylnicotinamide]
- 229E Inhibition rate: 28.4%

SMILES: CC(C)=CCC[C@@](C)(O)[C@H]1CC[C@]2(C)[C@@H]1[C@H](O)C[C@@H]1[C@@]3(C)CC[C@H](O)C(C)(C)[C@@H]3[C@@H](O[C@@H]3O[C@H](CO)[C@@H](O)[C@H](O)[C@H]3O[C@@H]3O[C@@H](C)[C@H](O)[C@@H](O)[C@H]3O)C[C@]12C [20(R)-Ginsenoside Rg2]
- 229E Inhibition rate: 5.2%

SMILES: CC12CCC(C1)C(C)(C)C2O (stereo not shown) [Fenchyl alcohol]
- 229E Inhibition rate: 8.3%

SMILES: O=C(O)C(O)c1cccc(O)c1 (stereo not shown) [3-Hydroxymandelic Acid]
- 229E Inhibition rate: 9%

SMILES: COc1ccc(C(=O)/C=C/c2ccc(O)cc2)c(O)c1CC=C(C)C [4-Hydroxyderricin]
- 229E Inhibition rate: 3%

SMILES: CC(C)=CCC/C(C)=C/Cc1cc(-c2coc3cc(O)ccc3c2=O)ccc1O [Corylifol A]
- 229E Inhibition rate: 2%

SMILES: CC(CC(=O)O)C(=O)O (stereo not shown) [2-Methylsuccinic acid]
- 229E Inhibition rate: 4.4%

SMILES: CCCCCCCCCCCCCC(=O)OC[C@@H](O)COP(=O)([O-])OCC[N+](C)(C)C [LysoPC(14:0/0:0)]
- 229E Inhibition rate: 20.5%

SMILES: C/C=C/C(=O)O [NSC 8751]
- 229E Inhibition rate: 14.2%

SMILES: COc1ccc(/C=C/c2cc(O)cc(O[C@@H]3O[C@H](CO)[C@@H](O)[C@H](O)[C@H]3O)c2)cc1 [Desoxyrhaponticin]
- 229E Inhibition rate: 0%

SMILES: NC(Cn1ccc(=O)c(O)c1)C(=O)O (stereo not shown) [Mimosine]
- 229E Inhibition rate: 7.7%

SMILES: C[C@@H]1O[C@@H](Oc2c(-c3ccc(O)cc3)oc3cc(O)cc(O)c3c2=O)[C@H](O)[C@H](O)[C@H]1O [Afzelin]
- 229E Inhibition rate: 13.3%

SMILES: C=C1C(=O)O[C@@H]2C[C@@]3(C)CCCC(=C)[C@@H]3C[C@H]12 [Isoalantolactone]
- 229E Inhibition rate: 20.6%

SMILES: COC(=O)[C@]12CCC(C)(C)C[C@H]1C1=CC[C@@H]3[C@@]4(C)CCC(=O)C(C)(C)[C@@H]4CC[C@@]3(C)[C@]1(C)CC2 [Methyl oleanonate]
- 229E Inhibition rate: 3.7%

SMILES: C[N+](C)(C)CCCC(=O)O [(3-Carboxypropyl)trimethylammonium chloride]
- 229E Inhibition rate: 14.3%

SMILES: CO[C@H]1C[C@H](O[C@H]2CC[C@]3(C)[C@H]4CC[C@]5(C)[C@@H](C6=CC(=O)OC6)CC[C@]5(O)[C@@H]4CC[C@]3(O)C2)O[C@H](C)[C@H]1O [Periplocymarin]
- 229E Inhibition rate: 22%

SMILES: CCCCCCCC(=O)OCC(COC(=O)CCCCCCC)OC(=O)CCCCCCC [Tricaprilin]
- 229E Inhibition rate: 21.7%

SMILES: COC(=O)/C=C/c1ccc(O)cc1 [(E)-Methyl 4-coumarate]
- 229E Inhibition rate (229E Inhibition rate, 24 h): 2.9%

SMILES: CC[C@H](C)[C@H](N)C(=O)O [L-Isoleucine]
- 229E Inhibition rate: 10.2%

SMILES: COc1ccc2c(c1O)-c1c(OC)c(OC)cc3c1[C@H](C2)N(C)CC3 [Isocorydine]
- 229E Inhibition rate: 23.1%

SMILES: O=c1[nH]cnc2nc[nH]c12 [Hypoxanthine]
- 229E Inhibition rate: 20.4%

SMILES: Nc1ncnc2c1ncn2[C@@H]1O[C@H](CO)[C@@H](O)[C@@H]1O [Vidarabine]
- 229E Inhibition rate: 17.7%

SMILES: C[C@H](CCC(=O)NCC(=O)O)[C@H]1CC[C@H]2[C@@H]3C[C@H](O)[C@@H]4C[C@H](O)CC[C@]4(C)[C@H]3CC[C@]12C [Glycohyodeoxycholic acid]
- 229E Inhibition rate: 0%

SMILES: CC(=O)OCC1=CO[C@@H](OC(=O)CC(C)C)[C@H]2C1=C[C@H](OC(=O)CC(C)(C)OC(C)=O)[C@]21CO1 [Acevaltrate]
- 229E Inhibition rate: 5.4%

SMILES: COc1cc(C(=O)O[C@H]2[C@@H]3C=CO[C@@H](O[C@@H]4O[C@H](CO)[C@@H](O)[C@H](O)[C@H]4O)[C@@H]3[C@@]3(CO)O[C@@H]23)ccc1O [Picroside II]
- 229E Inhibition rate: 10.1%

SMILES: CC(C)(O)CC[C@@H](O)[C@](C)(O)[C@H]1CC=C2C3=C(CC[C@@]21C)[C@@]1(C)C[C@H](O)[C@H](O)C[C@H]1C(=O)C3 [Podecdysone B]
- 229E Inhibition rate: 11.2%

SMILES: NC(=O)NC(NC(N)=O)C(=O)O [Allantoic acid]
- 229E Inhibition rate: 26.2%

SMILES: CCCCCCCCCC(=O)N[C@@H](Cc1c[nH]c2ccccc12)C(=O)N[C@H](CC(N)=O)C(=O)N[C@@H](CC(=O)O)C(=O)N[C@@H]1C(=O)NCC(=O)N[C@@H](CCCN)C(=O)N[C@@H](CC(=O)O)C(=O)N[C@H](C)C(=O)N[C@@H](CC(=O)O)C(=O)NCC(=O)N[C@H](CO)C(=O)N[C@@H]([C@H](C)CC(=O)O)C(=O)N[C@@H](CC(=O)c2ccccc2N)C(=O)O[C@@H]1C [Daptomycin]
- 229E Inhibition rate: 23.2%

SMILES: C[C@H](O)CC(=O)O [(S)-3-Hydroxybutanoic acid]
- 229E Inhibition rate: 16.6%

SMILES: C[C@@H]1CC[C@@]2(NC1)O[C@H]1C[C@H]3[C@@H]4CC=C5C[C@@H](O)CC[C@]5(C)[C@H]4CC[C@]3(C)[C@H]1[C@@H]2C [Solasodine]
- 229E Inhibition rate: 6.8%

SMILES: C[C@]12CCC(=O)C=C1CC[C@@H]1[C@@H]2CC[C@@]2(C)[C@H]1CC[C@]2(O)C(=O)CO [Cortodoxone]
- 229E Inhibition rate: 27.9%

SMILES: Cc1c(N)nc([C@H](CC(N)=O)NC[C@H](N)C(N)=O)nc1C(=O)N[C@H](C(=O)N[C@H](C)[C@@H](O)[C@H](C)C(=O)N[C@H](C(=O)NCCc1nc(-c2nc(C(=O)NCCC[S+](C)C)cs2)cs1)[C@@H](C)O)[C@@H](O[C@@H]1O[C@@H](CO)[C@@H](O)[C@H](O)[C@@H]1O[C@H]1O[C@H](CO)[C@@H](O)[C@H](OC(N)=O)[C@@H]1O)c1cnc[nH]1 [Bleomycin (sulfate)]
- 229E Inhibition rate: 12.9%

SMILES: CC(C)(O)CCC(=O)[C@](C)(O)C1[C@H](O)C[C@@]2(C)[C@@H]3CC=C4[C@@H](C[C@H](O)[C@@H](O)C4(C)C)[C@]3(C)C(=O)C[C@]12C (stereo partly shown) [Cucurbitacin IIb]
- 229E Inhibition rate: 13.2%

SMILES: O=C1CC(C(=O)O)c2c1oc(=O)c1cc(O)c(O)c(O)c21 (stereo not shown) [Brevifolincarboxylic acid]
- 229E Inhibition rate: 6.4%

SMILES: Nc1nc(O)c2[nH]nnc2n1 [8-Azaguanine]
- 229E Inhibition rate: 27.3%

SMILES: C[S@@+]([O-])CCCCN=C=S [(R)-sulforaphane]
- 229E Inhibition rate: 54%

SMILES: COc1cc(O)cc(/C=C/c2ccc(O)cc2)c1 [Pinostilbene]
- 229E Inhibition rate: 20.3%

SMILES: C[C@H](CCC(=O)O)[C@H]1CC[C@H]2[C@@H]3[C@H](O)C[C@@H]4CC(=O)CC[C@]4(C)[C@H]3C[C@H](O)[C@]12C [3-Oxocholic acid]
- 229E Inhibition rate: 4.2%

SMILES: CN[C@H](CC(C)C)C(=O)N[C@H]1C(=O)N[C@@H](CC(N)=O)C(=O)N[C@H]2C(=O)N[C@H]3C(=O)N[C@H](C(=O)N[C@H](C(=O)O)c4cc(O)cc(O)c4-c4cc3ccc4O)[C@H](O)c3ccc(c(Cl)c3)Oc3cc2cc(c3O[C@@H]2O[C@H](CO)[C@@H](O)[C@H](O)[C@H]2O[C@H]2C[C@](C)(N)[C@H](O)[C@H](C)O2)Oc2ccc(cc2Cl)[C@H]1O [Vancomycin (hydrochloride)]
- 229E Inhibition rate (229E Inhibition rate, 24 h): 13.7%
